These are yes or no findings as the source states them, for the method shown. Binding seen in cells or lysates may run through a third protein. These calls come from enrichment with a bait or labelling near it, and not all partners need be listed.
B1: nuclear export mediator factor (protein, UniProt Q8CCP0 1-1064)
chain: MKSRFSTVDLRAVLAELNASLLGMRVNNVYDVDNKTYLIRLQKPDFKATLLLESGIRIHTTEFEWPKNMMPSSFAMKCRKHLKSRRLVSAKQLGVDRIVDFQFGSDEAAYHLIIELYDRGNIVLTDYEYLILNILRFRTDEADDVKFAVRERYPIDHARAAEPLLTLERLTEVIAAAPKGEVLKRVLNPLLPYGPALIEHCLIESGFSGNAKVDEKLESKDIEKILVCVQRAEDYLRKTSNFNGKGYIIQKREAKPSLDADKPAEDILTYEEFHPFLFSQHLQCPYIEFESFDKAVDEFYSKIEGQKIDLKALQQEKQALKKLDNVRKDHENRLEALQQAQEIDKLKGELIEMNLQIVDRAIQVVRSALANQIDWTEIGVIVKEAQAQGDPVACAIKELKLQTNHVTMLLRNPYLLSEEEDGDGDASIENSDAEAPKGKKKKQKNKQLQKPQKNKPLLVDVDLSLSAYANAKKYYDHKRYAAKKTQRTVEAAEKAFKSAEKKTKQTLKEVQTVTSIQKARKVYWFEKFLWFISSENYLIIGGRDQQQNEIIVKRYLTPGDIYVHADLHGATSCVIKNPTGEPIPPRTLTEAGTMALCYSAAWDARVITSAWWVYHHQVSKTAPTGEYLTTGSFMIRGKKNFLPPSYLMMGFSFLFKVDESCVWRHRGERKVRVQDEDMETLTSCTSELMAEEMEQLEGGDSSEEETEELHGMPGDVELMTQVDQEDIAVHSGRDELSSEDGEAKAVTKDQEPIGEMKEEEEDTFEYPDTTIDLSHLQSQRPLQKLAPREESLNSNDSKSQGRRHLSAKERREMKKKKLPCESGDLEVIEEKDKERESAVHTEAYQNTSKNVAAGQPMKRGQKSKMKKMKEKYKDQDDEDRELIMKLLASAGSNKEEKGKKGKKGKPKDEPVKKPPQKPRGGQRVLDVVKEPPSLQVLAHDLQDLAVDDPHDDKEEHDLDQQGNEENLFDSLTGQPHPEDVLMFAIPICAPYTIMTNYKYKVKLTPGVQKKGKAAKTALNSFMHSKEATAREKDLFRSVKDTDLSRNIPGKVKVSAPNLLHVKRK
B2: PAR12 (protein, UniProt Q8BZ20 1-711)
chain: MAQAAVAVAEVTQLLCAAGGALELAELRRRLRTSLGTDALERLLRDCGRFVVASRAVVAVGAGREAAAAASERLVLAVSSLRLCRAHQGPKPGCTGLCAQLHLCKFLIYGNCKFLKTGKNCRNGHNLKTDHNLSVLRTHGVDHLTYTELCQLLLQNDPSLLPDICLHYNKGDGPFGSCSFQKQCIKLHICQYFLQGECKFGTSCKRSHEFTNSESLEQLERLGLSSDLVSRLLSTYRNAYDIKNKGSALSKVSPSPAGPQGSSERKDSSGPVSPGTPSQEESEQICLYHIRKSCSFQEKCHRVHFHLPYRWQFLDGGKWKDLDNMELIEEAYSNPSKDRIVYTESAAGFHFDNLDFNSMKFGNTLARRLSTASSVTKPPHFILTTDWIWYWMDEFGSWQEYGRQGSGHPVTTISSSDVERAYLAFCAPGADAQAATLKFQAGKHNYELHFKAFLQKNLVYGTIRKVCRRPKYVSPQDVQMKQSCNTKLHGPKSIPDYWDPAALPDLGFKKITLSSSSEEYQKVWNIFNRTLPFYFVQKIERIQNMGLWEVYQWQKCQMQKQNGGKEVDERQLFHGTSANFVDAICQQNFDWRVCGLHGTSYGKGSYFARDAAYSHHYSKSDTHSHMMFLARVLVGDFVRGSTSFVRPPAKEGQSNAFYDSCVNSMSDPTIFVVFEKHQVYPEYLIQYSTSSKPPASPSIFVALGNLFTSRQ
B3: structural maintenance of chromosomes protein 6 (protein, UniProt Q924W5 1-1097)
chain: MAKRKEENFCSPENAKRPRQEELEDFDKDGDEDECTISFTNGTSTLTAAEVGIIESIQLRNFMCHSMLGPFKFGSNVNFVVGNNGSGKSAVLTALIVGLGGKAVATNRGSSLKGFVKAGQNSADISITLRNRGDDAFRANVYGDSIVVQQHISVDGSRSYKLKSEKGTVVSTRKEELIAILDHFNIQVDNPVSVLTQEMSKQFLQSKNEGDKYKFFMKATQLEQMKEDYSYIMETKERTKEQINQGEERLTELKRQCLEKEERFQNIAGLSTMKTNLEYLKHEMAWAVVNEIEKQLNAIRDNIKIGEERAAKLDRKMEEQQVRLNDAEKKYKDIQDKLEKISEETNARAPECMALKTDVIARTRAFNDAEVLYNRSLNEYKALKKDGEQLCKRIEELKKSTDQSLEPERLERQKRICWLKEKVKALQDQEHTVNQEAEQFEQAIEKDKQEHGRVRKEDIEVRHALNYNQRQLKELKDSKTDRLKRFGPHVPALLEAIDDAYRRRQFTHKPIGPLGACIHLRDPELALAIESCLKGLLQAYCCHNHADERVLQSLMKKFYPPGTSRPQIIVSEFRDEVYDVRLRAAYHPEFPTVLTALEIDNAVVANSLIDMRSIETVLLIKNNSVARAVMQSQKPPKNCREAFTADGDQVFAGRYYSSESTRPKFLSRDVDSEISDLETEIENKKGHIITLQQRLSALEKDIKRNEELLKRCQLHYKEIKMKIRKNISEIRELENIEEHQSVDIATLEDEAEENKIKMQMVEKNMEQQKENMENLKSLKIEAENKYDTIKLKINQLSELADPLKDELNLADSEVDSQKRGKQHYEDKQKEHLDTLNKKRRELDMKEKELQEKMSQARQICPERIEVKKSASILDKEINRLRQKIQAEHASHGDREEIMKQYQEARETYLDLDNKVRTLRRFIKLLEEIMTHRYKTYQQFRRCLTLRCKLYFDNLLSQRAYCGKMNFDHKNETLSITVQPGEGNKASFNDMRALSGGERSFSTVCFILSLWSIAESPFRCLDEFDVYMDMVNRRIAMDMILKMADSQRFRQFILLTPQSMSSLPSSKLIRILRMSDPERGQTTLPFRPVTQEEDDSAS
B4: PRP17 (protein, UniProt Q9DC48 1-579)
chain: MSAAIAALAASYGSGSGSESDSDSEGSRCPLPAADSLMHLTKSPSAKLSLTVAVDSAPEVAVKEDLETGVHLDPAVKEVQYNPTYETMFAPEFGPENPFRTQQMAAPRNMLSGYAEPAHINDFMFEQQRRTFATYGYALDPSLDNHQVSAKYIGSVEEAEKNQGLTVFETGQKKTEKRKKFKENDASNIDGFLGPWAKYVDEKDVAKPSEEEQKELDEITAKRQKKGKQEEEKPGEEKTILHVKEMYDYQGRSYLHIPQDVGVNLRSSVPPEKCYLPKKQIHVWSGHTKGVSAVRLFPLSGHLLLSCSMDCKIKLWEVYGDRRCLRTFIGHSKAVRDICFNTAGTQFLSAAYDRYLKLWDTETGQCISRFTNRKVPYCVKFNPDEDKQNLFVAGMSDKKIVQWDIRSGEIVQEYDRHLGAVNTIVFVDENRRFVSTSDDKSLRVWEWDIPVDFKYIAEPSMHSMPAVTLSPNGKWLACQSMDNQILIFGAQNRFRLNKKKIFKGHMVAGYACQVDFSPDMSYVISGDGNGKLNIWDWKTTKLYSRFKAHDKVCIGAVWHPHETSKVITCGWDGLIKLWD

Chains of the proteins cited; added tags and fusions are not shown.
UniProt P38532: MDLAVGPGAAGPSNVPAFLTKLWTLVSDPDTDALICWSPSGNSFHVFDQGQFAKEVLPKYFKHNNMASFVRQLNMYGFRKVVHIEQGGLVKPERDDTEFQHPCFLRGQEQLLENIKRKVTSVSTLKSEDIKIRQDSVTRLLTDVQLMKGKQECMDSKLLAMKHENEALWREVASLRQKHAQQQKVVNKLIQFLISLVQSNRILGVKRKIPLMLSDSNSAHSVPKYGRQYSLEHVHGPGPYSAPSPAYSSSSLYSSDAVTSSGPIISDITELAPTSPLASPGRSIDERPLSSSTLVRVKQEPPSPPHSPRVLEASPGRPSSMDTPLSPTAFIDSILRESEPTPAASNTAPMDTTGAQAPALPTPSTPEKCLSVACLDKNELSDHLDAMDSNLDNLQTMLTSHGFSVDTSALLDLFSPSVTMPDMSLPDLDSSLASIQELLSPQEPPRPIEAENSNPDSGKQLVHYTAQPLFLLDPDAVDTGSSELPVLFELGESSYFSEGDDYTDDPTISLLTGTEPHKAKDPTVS

target: heat shock transcription factor 1 (endogenous, mouse striatal cells) (mouse (endogenous in STHdh striatal cells)) (UniProt P38532); assay: affinity purification with mass spectrometry; endogenous untagged HSF1 immunoprecipitated with polyclonal anti-HSF1 covalently linked to DynaG beads from STHdh Q7 (control), Q7 heat shock (42 °C, 30 min) and Q111 (HD) lysates, no cross-linker; IgG IP as control; hits at least twofold over IgG, p < 0.05, ProteinTeller probability >= 0.8; quantitative LC-MS/MS

binding, binds:
B1
B2
B3
B4
